Source: PubChem BioAssay AID1224830 (NIAID, 2016)
Aim: 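Genes whose knock-down alters the TNF-alpha reporter response to LPS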 (primary screen). Cell system: human THP-1 monocytic leukaemia cells, TNF dual-luciferase reporter clone, PMA-differentiated to macrophage-like cells. Knock-down reagent: siRNA pool against human genes, 50 nM. Time to read-out: LPS for 4 h, given about 3 days after siRNA transfection. Conditions: bacterial LPS (TLR4 ligand), 10 ng/ml. Detection: 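TNF firefly reporter luminescence divided by renilla, normalised to the plate median, then turned into a robust z-score for each replicate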. Reading the numbers: TNF reporter robust z-score: higher = stronger TNF reporter response to LPS. Rule for the call: 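Each well counts as active if its z-score is over 2.8 or under -1.5; controls are left without a call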.
The whole screen tested about 18,000 reagents; below is an unselected part. Over the whole deposit, about 2,900 (16%) were called active. 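Calls are made per well; low scores hint the gene aids the LPS response, high scores that it dampens it.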 Unmarked entries are inactive. Repeated entries: four replicate wells of each siRNA pool.

Against TRIM9 [SID315461212] the deposit lists TNF reporter robust z-score -0.01.
For TRIM9 [SID315461212] the deposit lists TNF reporter robust z-score -1.23.
Against TRIM9 [SID315461212], the values are TNF reporter robust z-score -1.35.
With knock-down of TRIM9 [SID315461212], the record shows TNF reporter robust z-score -1.3.
DUSP1 [SID315448399] showed TNF reporter robust z-score -0.22.
After knock-down of DUSP1 [SID315448399], the screen gave TNF reporter robust z-score -0.07.
For DUSP1 [SID315448399] the deposit lists TNF reporter robust z-score -0.71.
Knock-down of DUSP1 [SID315448399] resulted in: TNF reporter robust z-score 0.22.
After knock-down of RRAS2 [SID315454784] the results were TNF reporter robust z-score 0.69.
For RRAS2 [SID315454784] the deposit lists TNF reporter robust z-score 0.23.
RRAS2 [SID315454784] showed TNF reporter robust z-score 0.32.
With knock-down of RRAS2 [SID315454784], the record shows TNF reporter robust z-score 1.41.
Knock-down of PPAT [SID315450725] came out at: TNF reporter robust z-score 1.24.
PPAT [SID315450725] gave TNF reporter robust z-score 0.63.
After knock-down of PPAT [SID315450725] the results were TNF reporter robust z-score 0.67.
For PPAT [SID315450725], the entry reads TNF reporter robust z-score 1.02.
With knock-down of SPACA4 [SID315462927], the screen gave TNF reporter robust z-score 0.56.
After knock-down of SPACA4 [SID315462927] the results were TNF reporter robust z-score -0.14.
Knock-down of SPACA4 [SID315462927] came out at: TNF reporter robust z-score -0.75.
Against SPACA4 [SID315462927], the values are TNF reporter robust z-score 0.01.
Against PPIL6 [SID315463876], the entry reads TNF reporter robust z-score 0.33.
For PPIL6 [SID315463876] the deposit lists TNF reporter robust z-score 3.5 (active).
For PPIL6 [SID315463876] the deposit lists TNF reporter robust z-score 0.31.
After knock-down of PPIL6 [SID315463876], the screen gave TNF reporter robust z-score 1.98.
For SC5D [SID315451298], the values are TNF reporter robust z-score -1.63 (active).
SC5D [SID315451298] scored TNF reporter robust z-score -1.3.
With knock-down of SC5D [SID315451298], the screen gave TNF reporter robust z-score -1.51 (active).
Silencing of SC5D [SID315451298] gave: TNF reporter robust z-score -1.26.
With knock-down of GABBR2 [SID315453389] the results were TNF reporter robust z-score 1.06.
For GABBR2 [SID315453389], the values are TNF reporter robust z-score 1.18.
Knock-down of GABBR2 [SID315453389] gave: TNF reporter robust z-score 1.62.
Knock-down of GABBR2 [SID315453389] came out at: TNF reporter robust z-score 1.58.
For NRG2 [SID315453370], the entry reads TNF reporter robust z-score 0.31.
Depletion of NRG2 [SID315453370] gave: TNF reporter robust z-score 0.23.
NRG2 [SID315453370] showed TNF reporter robust z-score -0.02.
Silencing of NRG2 [SID315453370] gave: TNF reporter robust z-score 0.32.
Knock-down of TMEM67 [SID315460888] gave: TNF reporter robust z-score -0.72.
TMEM67 [SID315460888] showed TNF reporter robust z-score -0.5.
Knock-down of TMEM67 [SID315460888] came out at: TNF reporter robust z-score 0.06.
TMEM67 [SID315460888] showed TNF reporter robust z-score 0.34.
YTHDC2 [SID315459021] scored TNF reporter robust z-score 1.63.
For YTHDC2 [SID315459021], the values are TNF reporter robust z-score 0.63.
For YTHDC2 [SID315459021], the values are TNF reporter robust z-score 0.66.
Knock-down of YTHDC2 [SID315459021] resulted in: TNF reporter robust z-score 0.61.
LARGE2 [SID315461487] scored TNF reporter robust z-score -1.27.
For LARGE2 [SID315461487], the entry reads TNF reporter robust z-score -1.23.
For LARGE2 [SID315461487], the entry reads TNF reporter robust z-score -0.54.
For LARGE2 [SID315461487] the deposit lists TNF reporter robust z-score -1.4.
Depletion of NEURL4 [SID315460375] resulted in: TNF reporter robust z-score -0.92.
Knock-down of NEURL4 [SID315460375] gave: TNF reporter robust z-score -1.01.
NEURL4 [SID315460375] scored TNF reporter robust z-score 0.01.
With knock-down of NEURL4 [SID315460375], the screen gave TNF reporter robust z-score -1.13.
Knock-down of RUSC1 [SID315455374] gave: TNF reporter robust z-score -0.99.
RUSC1 [SID315455374] scored TNF reporter robust z-score 0.11.
For RUSC1 [SID315455374], the entry reads TNF reporter robust z-score -0.04.
Knock-down of RUSC1 [SID315455374] came out at: TNF reporter robust z-score -0.5.
For TMEM145 [SID315463762], the values are TNF reporter robust z-score 0.36.
After knock-down of TMEM145 [SID315463762], the record shows TNF reporter robust z-score 0.8.
TMEM145 [SID315463762] scored TNF reporter robust z-score 0.54.
For TMEM145 [SID315463762], the entry reads TNF reporter robust z-score 1.07.

7 entries already listed, ordered by “TNF reporter robust z-score”, lowest first:
NEURL4 [SID315460375] | TNF reporter robust z-score = -1.13
NEURL4 [SID315460375] | TNF reporter robust z-score = -1.01
RUSC1 [SID315455374] | TNF reporter robust z-score = -0.99
RUSC1 [SID315455374] | TNF reporter robust z-score = -0.5
RUSC1 [SID315455374] | TNF reporter robust z-score = -0.04
NEURL4 [SID315460375] | TNF reporter robust z-score = 0.01
RUSC1 [SID315455374] | TNF reporter robust z-score = 0.11
